Test results as given in PubChem BioAssay AID2551 (National Center for Advancing Translational Sciences (NCATS), 2010).
Among all 310,000 compounds or so, about 17,000 (5.5%) were called active. The shares of active, inactive and inconclusive entries below differ from those in the screen. Calls follow the shape of the dose curve; as a rule, active = well fitted inhibition curve with a large enough effect; inconclusive = small, poorly fitted or top-dose-only effect, or effect the other way; inactive = no such curve, though single readings can be large or run the other way. Potencies of inconclusive entries are doubtful fits and often do not repeat.

Amino acid sequences for entries named in this document (tags omitted). A change or cut given only in a name is not applied to a line headed by its entry.
UniProt P51450: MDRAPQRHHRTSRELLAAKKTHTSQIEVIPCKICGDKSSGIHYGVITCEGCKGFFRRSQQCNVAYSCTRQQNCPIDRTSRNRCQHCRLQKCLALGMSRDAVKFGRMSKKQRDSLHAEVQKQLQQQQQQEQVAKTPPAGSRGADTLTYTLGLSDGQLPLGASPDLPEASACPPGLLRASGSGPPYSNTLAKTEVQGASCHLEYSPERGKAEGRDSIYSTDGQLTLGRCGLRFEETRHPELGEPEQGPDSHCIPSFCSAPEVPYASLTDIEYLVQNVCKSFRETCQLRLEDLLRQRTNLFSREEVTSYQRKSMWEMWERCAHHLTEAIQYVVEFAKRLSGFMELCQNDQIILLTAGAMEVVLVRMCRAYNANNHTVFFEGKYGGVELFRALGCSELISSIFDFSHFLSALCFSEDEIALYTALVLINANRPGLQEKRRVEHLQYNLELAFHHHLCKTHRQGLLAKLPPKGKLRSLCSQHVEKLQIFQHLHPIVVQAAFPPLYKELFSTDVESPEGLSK

These molecules were tested against Nuclear receptor ROR-gamma (Mus musculus) (UniProt P51450) (assay: qHTS for inhibitors of ROR gamma transcriptional activity). Conditions: Drosophila S2 Gal4-RORgamma UAS-luciferase reporter, 20 h; series mostly up to 53.6 µM.
How it was run: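 Read-out: Photinus luciferase luminescence; inhibitors lower reporter signal. Insect Schneider cells with Gal4-ROR gamma fusion under metallothionein promoter, UAS reporter; 700 uM final copper sulfate induction, 20 hr, ambient temperature.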
Also: nearly all actives have a fitted effect of over 60% in size.
Potency is read from the fitted curve at half-maximal effect.

Potency, inactive:
CN1CCN(c2ccc(CNS(=O)(=O)c3ccsc3)cc2)CC1, O=C(C1CC(=O)N(c2ccc3c(c2)OCCO3)C1)N1CCN(c2ccccc2)CC1 (stereo not drawn), Cc1csc(NC(=O)CSc2nnc3c4ccccc4nc(C(C)(C)C)n23)n1, COc1cc(C(=O)N2CCc3ccccc32)ccc1OCc1c(C)noc1C, C=C1c2cccc(C(F)(F)F)c2O[C@H](C(=O)OCC)[C@@H]1CCCCCC, Nc1ccc2nc(-c3cccnc3)[nH]c2c1, COc1ccc(-n2nnnc2SCC(=O)N2CCOCC2)cc1, COc1ccc(CNC(=O)/C=C/c2ccco2)cc1OC, COc1cccc(NC(=O)CCS(=O)(=O)c2ccc3c(c2)oc(=O)n3C)c1, CC(C)(C)C(=O)c1cn(CC(=O)NCc2ccc3c(c2)OCO3)c2ccccc12, Cc1cccc(C(=O)Nc2cccc(-c3cnc4ccccc4n3)c2)c1, N#Cc1ccc(CN2CCCC3(CCN(C(=O)c4cnccn4)CC3)C2)cc1, COc1cc(OC)c(C(=O)O/N=C(\N)c2cccc(C)c2)cc1OC, CCN(CC)CCC(C)OC(c1ccccc1)c1ccccc1 (stereo not drawn), Clc1ccc(COn2nnc3ccccc32)c(Cl)c1, O=S(=O)(c1ccc(Cl)nc1)N(Cc1ccccc1)Cc1ccccc1, Cc1ccc(NCc2ccco2)cc1C, COc1cccc(CNCCNC(=O)c2ccco2)c1OC

Potency, inconclusive:
COc1cccc(/C=C/C(=O)c2cccc([N+](=O)[O-])c2)c1OC 35.5 µM [inhibitor, single point], CCCCCCCCCC(=O)N/N=C(\C)c1cccnc1 17.8 µM [activator, partial curve], CCOc1ccccc1OCCCC(=O)Nc1sccc1C(N)=O 22.4 µM [activator, single point], CCCCCCn1c(COc2ccccc2F)nnc1SCC(=O)N1c2ccccc2NC(=O)C1(C)C 35.5 µM [inhibitor, single point], COCCNc1ncnc2ccc(-c3cccc(OC)c3)cc12 15.8 µM [activator, partial curve], O=C(NC(=S)Nc1nc2ccccc2s1)c1cccs1 5.62 µM [inhibitor, single point], CSc1ncccc1C(=O)OCC(=O)c1cc(C)n(CC2CCCO2)c1C (stereo not drawn) 10 µM [inhibitor, single point], CC(C)(C)c1csc(NC(=O)c2cccs2)n1 15.8 µM [activator, partial curve], CCCCC(=O)Nc1nc2c(OC)cc([N+](=O)[O-])cc2s1 10 µM [activator, partial curve, poor fit], COc1ccc(/C(N)=N/OC(=O)c2cccc([N+](=O)[O-])c2)cc1 2.51 µM [activator, full curve, poor fit], CC(C)c1ccc(N(CC(=O)NCc2cccnc2)S(=O)(=O)c2ccccc2)cc1 10 µM [activator, partial curve], CCCCCCCN1N=C(C)C(C(=O)c2ccccc2)C1=O (stereo not drawn) 35.5 µM [inhibitor, single point], CCNc1nc(NCC)nc(N/N=C/c2ccc(O)c(O)c2)n1 11.2 µM [inhibitor, partial curve, poor fit], Cc1ccc2cccc(Oc3nnnn3-c3ccccc3)c2n1 3.55 µM [inhibitor, full curve, poor fit], Cc1ccc2cccc(SCC(=O)Nc3ccc(F)cc3)c2n1 11.2 µM [inhibitor, partial curve, poor fit], N=c1ccn(Cc2ccc(F)cc2)cc1 8.91 µM [activator, partial curve], CC1(C)C=C2C(=NN(c3ccccc3)C(N)=C2C#N)CO1 7.94 µM [inhibitor, partial curve], CCCCCC(=O)N1CC2(CC(c3cccc(NC(=O)CC(c4ccccc4)c4ccccc4)c3)=NO2)C[C@@H]1C(N)=O (stereo partly drawn) 20 µM [activator, single point], COc1ccc(C(=O)NCCC2=CCCCC2)cc1[N+](=O)[O-] 14.1 µM [activator, single point], COc1ccc(N=C(N)SCc2ccccn2)cc1 25.1 µM [inhibitor, single point], COc1ccc(N2C(=O)CC(Sc3ncccc3C(=O)O)C2=O)cc1 (stereo not drawn) 3.16 µM [inhibitor, single point], CC1CCC2C(C1)c1sc(=O)[nH]c1SC2(C)C (stereo not drawn) 14.1 µM [inhibitor, single point], Cc1ccc(O)c(NC(=O)CSc2n[nH]c(-c3ccccc3)n2)c1 10 µM [activator, partial curve], Cc1nnc(NC(=O)c2sc3ccccc3c2Cl)s1 6.31 µM [inhibitor, single point], CC(NC(=O)c1cc(COc2ccc3ncccc3c2)on1)c1ccc(F)cc1 (stereo not drawn) 3.16 µM [activator, single point], CCOC(=O)c1ccc(NC(=O)CSc2nnc(C3CCCCC3)n2C)cc1 6.31 µM [activator, single point], CC12CCC(C(=O)N/N=C/c3ccc(O)cc3O)(OC1=O)C2(C)C (stereo not drawn) 14.1 µM [inhibitor, single point], O=C(Nc1ccc2c(c1)CCC2)c1cc2ccccc2o1 0.562 µM [activator, single point], CC(=O)Nc1ncnc2c1c(-c1ccc(Cl)cc1)nn2C(C)(C)C 10 µM [inhibitor, partial curve], COC(=O)c1cc(=O)n(Cc2ccc(OC)c(OC)c2)c(=Nc2ccc(F)cc2)s1 25.1 µM [inhibitor, single point], Cc1cccc(N2CCN(C(=O)C(Cc3ccccc3)n3cccc3)CC2)c1C (stereo not drawn) 10 µM [activator, partial curve, poor fit], O=C(CC(=O)N/N=C\c1cccc(Cl)c1Cl)NCc1ccccc1 28.2 µM [activator, single point], CC(C)(C)C(=O)/C=c1\[nH]c(=O)/c(=C\c2ccc(C#N)cc2)s1 35.5 µM [inhibitor, single point], O=C(c1cc(-c2ccc(Cl)cc2)on1)N1CCCC1 8.91 µM [inhibitor, partial curve, poor fit], NC(=O)c1cccc(NC(=O)Nc2ccc(Cl)cc2)c1 5.62 µM [activator, single point], O=C(Nn1c(O)c(C=C2N=c3ccccc3=N2)sc1=S)c1cccc(Cl)c1 35.5 µM [inhibitor, single point], CCn1c(/C=C/c2ccc(O)cc2)nc2ccccc2c1=O 6.31 µM [activator, partial curve], CCCN(CCC)C(=O)CSc1nc2ccccc2c(=O)n1CC1COc2ccccc2O1 (stereo not drawn) 12.6 µM [activator, single point], O=S(=O)(c1ccc(Br)cc1)c1nc(-c2ccccc2)oc1NCc1cccnc1 35.5 µM [activator, single point]

Potency, active:
CCc1nnc(NC(=O)c2nc(S(=O)(=O)Cc3cccc(C)c3)ncc2Cl)s1 12.6 µM, Cc1ccc2nc(NC(=O)CCCC(=O)O)sc2c1 1.12 µM, Cc1cc(C)nc(N/N=C/c2ccccc2OCc2cccc(Br)c2)n1 50.1 µM, CCN=c1scc(-c2ccc(F)cc2)n1/N=C/c1ccccn1 17.8 µM, CCCCCN1CSC(=S)N(Cc2ccccc2)C1 10 µM, CCOc1ccccc1Oc1cn[nH]c1-c1ccc(OC)cc1O 8.91 µM, CC1=C/C(=N\OS(=O)(=O)c2ccccc2)C(C)=CC1=O 1.12 µM, Cc1ccc(-c2cc(-c3ccc(C)cc3O)[nH]n2)cc1 3.98 µM, COc1cccc(CN(C)C(=S)Nc2cccc(C)c2)c1 11.2 µM, O=C(N/N=C/c1cccc(Oc2ccccc2)c1)c1ccc(O)cc1O 0.631 µM, N#CC(C#N)=Cc1cn(-c2ncc(C(F)(F)F)cc2Cl)c2ccccc12 11.2 µM, COCCCNC(=S)N(Cc1ccccc1)Cc1nc2ccccc2c(=O)[nH]1 15.8 µM, Fc1cccc2sc(Nc3nnc(-c4ccco4)o3)nc12 0.126 µM, Cc1ccc(-n2c(C)cc(/C=N/NC(=O)c3ccncc3)c2C)cc1 7.94 µM, CC(C)(C)CC(C)(C)c1ccc(O)c(CN2CCN(CCC#N)CC2)c1 25.1 µM, COc1ccc(NC(=S)Nc2ccc(OCc3ccccc3)cc2)c(OC)c1 7.08 µM, O=C(N/N=C/c1ccc(Cl)s1)c1ccccc1[N+](=O)[O-] 6.31 µM, O=C(Nc1nnc(-c2ccc(Cl)cc2)o1)C1=COCCO1 2.51 µM, COc1ccc(O)c(C(=O)CC(=O)c2ccccc2)c1 7.08 µM, Cc1cc(S(=O)(=O)NCc2ccccn2)c(Cl)cc1Cl 7.08 µM, O=C(CNC(=O)c1ccccc1Br)N/N=C/c1ccccc1O 3.16 µM
